No constants are given. Whether binding was seen depends on the method and setting. In cells and extracts the contact can be indirect. Some entries that bind do so weakly or less than the wild type. Tags and fused reporters may be left off the sequences shown.
T1: HA-tagged Pyk1 (HA-Pyk1) (S. cerevisiae, UniProt P00549 1-500)
T1 construct: Pyk1 (Cdc19), pyruvate kinase of S. cerevisiae; also called pRS313-HA-PYK1; source: S. cerevisiae (pyk1∆ tsa1/2∆ or pyk1∆ cells) carrying pRS313-HA-PYK1, in lysate (whole cell extract)
T1 sequence (looked up): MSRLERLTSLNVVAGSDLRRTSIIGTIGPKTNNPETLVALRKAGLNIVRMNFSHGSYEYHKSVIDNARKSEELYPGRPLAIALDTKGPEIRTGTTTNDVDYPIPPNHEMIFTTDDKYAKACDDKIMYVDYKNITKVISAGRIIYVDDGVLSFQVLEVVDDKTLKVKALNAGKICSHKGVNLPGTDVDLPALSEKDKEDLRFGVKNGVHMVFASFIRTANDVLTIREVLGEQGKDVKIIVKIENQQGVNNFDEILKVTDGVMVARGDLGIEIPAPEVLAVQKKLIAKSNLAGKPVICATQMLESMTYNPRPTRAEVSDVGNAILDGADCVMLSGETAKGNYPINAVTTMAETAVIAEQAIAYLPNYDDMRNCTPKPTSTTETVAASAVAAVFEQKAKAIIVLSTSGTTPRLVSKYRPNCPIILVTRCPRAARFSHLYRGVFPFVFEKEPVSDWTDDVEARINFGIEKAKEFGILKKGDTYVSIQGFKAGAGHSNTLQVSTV


Molecular target: T1, HA-tagged Pyk1 (HA-Pyk1)
Assay: co-IP; HA-Pyk1 precipitated with anti-HA antibody beads from yeast whole cell extract (400 μg; IP buffer: 100 mM MES pH 7.0, 200 mM KCl, 15 mM MgCl2, 5% glycerol, 0.15% NP-40, 50 mM NEM; 4 °C, 3 h); immunoblot with anti-Tsa1, anti-Pyk1 and anti-Prx-SO2/SO3; cells from glucose (SDM) or ethanol (SEM -Trp) medium, exponential, diauxic shift or early stationary phase, with or without 1, 3 or 10 mM H2O2

binding	Binder
binds	Tsa1^C171T (enzyme, S. cerevisiae, UniProt P34760 1-196, looked up, Tsa1 of S. cerevisiae with the resolving cysteine Cys171 mutated to Thr; source: S. cerevisiae tsa1/2Δ cells carrying an expression vector (pRS315), in lysate) MVAQVQKQAPTFKKTAVVDGVFDEVSLDKYKGKYVVLAFIPLAFTFVCPTEIIAFSEAAKKFEEQGAQVLFASTDSEYSLLAWTNIPRKEGGLGPINIPLLADTNHSLSRDYGVLIEEEGVALRGLFIIDPKGVIRHITINDLPVGRNVDEALRLVEAFQWTDKNGTVLPTNWTPGAATIKPTVEDSKEYFEAANK
binds	Tsa1∆C (hyperoxidation-resistant mutant of Tsa1) (domain or fragment, UniProt P34760 1-179) MVAQVQKQAPTFKKTAVVDGVFDEVSLDKYKGKYVVLAFIPLAFTFVCPTEIIAFSEAAKKFEEQGAQVLFASTDSEYSLLAWTNIPRKEGGLGPINIPLLADTNHSLSRDYGVLIEEEGVALRGLFIIDPKGVIRHITINDLPVGRNVDEALRLVEAFQWTDKNGTVLPCNWTPGAAT

Reference: paper PMC5025857, “Redox-dependent Regulation of Gluconeogenesis by a Novel Mechanism Mediated by a Peroxidatic Cysteine of Peroxiredoxin” (Scientific Reports, 2016)
